According to PMC8576004:
Substitutions are numbered along the chain they refer to. Names and notes keep the numbering of the source. No constants are given. Whether binding was seen depends on the method and setting. Binding seen in cells or lysates may run through a third protein. Some results given as binding are weak or reduced against the parent protein; the word gives no strength. One block for each binder: values may come before it.

Experiments:
Assay in all cases: FRET or BRET; single-molecule FRET probes in cell lysates: EYFP on the WW-like domain and ECFP inside the USP domain of ONE chain; excitation 433 nm, emission 460-570 nm; trypsinised lysate as negative control; FRET ratio EYFP/ECFP; the paper speculates that the interaction is intramolecular; 100 μM R18 reduced the FRET signal of FRIP8
[1] = biological target: single-molecule FRET probe insert-1 (human) (UniProt P40818)
[2] = biological target: single-molecule FRET probe insert-5 (human) (UniProt P40818)
[3] = biological target: single-molecule FRET probe insert-4 (human) (UniProt P40818)
[4] = biological target: FRIP8^P955A:L1063A (human) (UniProt P40818)
[5] = biological target: single-molecule FRET probe insert-3 (human) (UniProt P40818)
FRIP8^F1014A (human) = FRIP8^F1014A (human) (UniProt P40818)

binding [1]: binds
B1: single-molecule FRET probe insert-1 (domain or fragment, UniProt P40818 645-1118)
chain: GRIVPGLPSGWAKFLDPITGTFRYYHSPTNTVHMYPPEMAPSSAPPSTPPTHKAKPQIPAERDREPSKLKRSYSSPDITQAIQEEEKRKPTVTPTVNRENKPTCYPKAEISRLSASQIRNLNPVFGGSGPALTGLRNLGNTCYMNSILQCLCNAPHLADYFNRNCYQDDINRSNLLGHKGEVAEEFGIIMKALWTGQYRYISPKDFKITIGKINDQFAGYSQQDSQELLLFLMDGLHEDLNKADNRKRYKEENNDHLDDFKAAEHAWQKHKQLNESIIVALFQGQFKSTVQCLTCHKKSRTFEAFMYLSLPLASTSKCTLQDCLRLFSKEEKLTDNNRFYCSHCRARRDSLKKIEIWKLPPVLLVHLKRFSYDGRWKQKLQTSVDFPLENLDLSQYVIGPKNNLKKYNLFSVSNHYGGLDGGHYTAYCKNAARQRWFKFDDHEVSDISVSSVKSSAAYILFYTSLGPRVTDVAT

binding [2]: binds
B2: single-molecule FRET probe insert-5 (domain or fragment, UniProt P40818 645-1118)
chain: B1 chain

binding [3]: binds
B3: single-molecule FRET probe insert-4 (domain or fragment, UniProt P40818 645-1118)
chain: B1 chain

binding [4]: binds
B4: FRIP8^P955A:L1063A (domain or fragment, UniProt P40818 645-1118)
chain: B1 chain with P311A, L419A

binding [5]: binds
B5: single-molecule FRET probe insert-3 (domain or fragment, UniProt P40818 645-1118)
chain: B1 chain

binding (FRIP8^F1014A (human)): binds
B6: FRIP8^F1014A (domain or fragment, UniProt P40818 645-1118)
chain: B1 chain with F370A
